In this experiment the target is T1, GPC2 antigen (UniProt Q8N158 24-553, limits assumed).
T1 construct: also called glypican-2
T1 sequence (looked up): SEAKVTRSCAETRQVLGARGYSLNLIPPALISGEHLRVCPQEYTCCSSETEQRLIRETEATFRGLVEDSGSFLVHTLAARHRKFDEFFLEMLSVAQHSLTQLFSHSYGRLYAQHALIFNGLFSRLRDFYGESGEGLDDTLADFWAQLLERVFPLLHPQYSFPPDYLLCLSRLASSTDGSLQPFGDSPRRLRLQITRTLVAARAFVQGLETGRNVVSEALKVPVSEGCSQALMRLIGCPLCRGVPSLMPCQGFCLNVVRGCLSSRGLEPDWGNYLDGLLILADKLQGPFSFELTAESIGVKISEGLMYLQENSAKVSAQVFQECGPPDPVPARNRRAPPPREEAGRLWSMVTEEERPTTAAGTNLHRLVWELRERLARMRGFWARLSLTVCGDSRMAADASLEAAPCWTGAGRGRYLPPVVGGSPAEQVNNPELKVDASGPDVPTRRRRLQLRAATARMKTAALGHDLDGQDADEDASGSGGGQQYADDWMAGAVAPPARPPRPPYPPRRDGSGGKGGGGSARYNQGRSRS
Description: flow cytometry; Jurkat T cells expressing the construct, GPC2 antigen in solution. A general note: A flow cytometer gives signals particle by particle.

These are yes or no findings as the source states them, for the method shown. Some binding calls cover weakened binding; strength is not graded here.

B1: hCT3 CAR (hCT3-1 CD28HTM) (other)
VH: QVQLVQSGAEVKKPGASVKVSCKASRFTFTDYNIHWVRQAPGQGLEWIGYINPNNGDIFYKQKFNGRVTLTADKSTSTAYMELSSLTSEDTAVYYCVRSSNIRYTFDRFFDVWGQGTLVTVSS
VL: DVVMTQSPLSLPVTPGEPASISCRASSSVNYIYWYLQKPGQSPQLWIYYTSNLAPGVPDRFSGSGSGTDFTLKISRVEAEDVGVYYCQQFSSSPSTFGQGTKLEIK
notes: only hCT3-1 VH and VL are tied to the antibody; also called hCT3-CD28HTM
Turning to B1, the binding result is recorded as “binds”.

B2: ART-CT3-CT3 AbTCR+CSR (other)
chain 1: ENVLTQSPAIMSASLGEKVTMSCRASSSVNYIYWYQQKSDASPKLWIYYTSNLAPGVPARFSGSGSGNSYSLTISSMEGEDAATYYCQQFSSSPSTFGTGTKLELKRSRGGGGSGGGGSGGGGSLEMAEVQLQQSGPELVKPGASVKMSCKASRFTFTDYNIHWVKQSPGKTLEWIGYINPNNGDIFYKQKFNGKATLTINKSSNTAYMELRSLTSEDSAVYYCVRSSNIRYTFDRFFDVWGTGTTVTVSSEQKLISEEDLAAATGAPPLGTQPDCNPTPENGEAPASTSPTQSLLVDSQASKTLPIPTSAPVALSSTGKPVLDAGPVLFWVILVLVVVVGSSAFLLCHRRACRKRIRQKLHLCYPVQTSQPKLELVDSRPRRSSTQLRSGASVTEPVAEERGLMSQPLMETCHSVGAAYLESLPLQDASPAGGPSSPRDLPEPRVSTEHTNNKIEKIYIMKADTVIVGTVKAELPEGRGLAGPAEPELEEELEADHTPHYPEQETEPPLGSCSDVMLSVEEEGKEDPLPTAASGK
chain 2: EVQLQQSGPELVKPGASVKMSCKASRFTFTDYNIHWVKQSPGKTLEWIGYINPNNGDIFYKQKFNGKATLTINKSSNTAYMELRSLTSEDSAVYYCVRSSNIRYTFDRFFDVWGTGTTVTVSSASTKGPSVFPLAPSSKSTSGGTAALGCLVKDYFPEPVTVSWNSGALTSGVHTFPAVLQSSGLYSLSSVVTVPSSSLGTQTYICNVNHKPSNTKVDKRVEPKSCEVKTDSTDHVKPKETENTKQPSKSCHKPKAIVHTEKVNMMSLTVLGLRMLFAKTVAVNFLLTAKLFFL
chain 3: ENVLTQSPAIMSASLGEKVTMSCRASSSVNYIYWYQQKSDASPKLWIYYTSNLAPGVPARFSGSGSGNSYSLTISSMEGEDAATYYCQQFSSSPSTFGTGTKLELKRTVAAPSVFIFPPSDEQLKSGTASVVCLLNNFYPREAKVQWKVDNALQSGNSQESVTEQDSKDSTYSLSSTLTLSKADYEKHKVYACEVTHQGLSSPVTKSFNRGECPIKTDVITMDPKDNCSKDANDTLLLQLTNTSAYYMYLLLLLKSVVYFAIITCCLLRRTAFCCNGEKS
notes: AbTCR heterodimer and CSR are expressed together on one cell
On to B2, for which the binding entry is given as “binds”.

B3: ART-hCT3-1-hCT3-1 AbTCR+CSR (other)
chain 1: DVVMTQSPLSLPVTPGEPASISCRASSSVNYIYWYLQKPGQSPQLWIYYTSNLAPGVPDRFSGSGSGTDFTLKISRVEAEDVGVYYCQQFSSSPSTFGQGTKLEIKRSRGGGGSGGGGSGGGGSLEMAQVQLVQSGAEVKKPGASVKVSCKASRFTFTDYNIHWVRQAPGQGLEWIGYINPNNGDIFYKQKFNGRVTLTADKSTSTAYMELSSLTSEDTAVYYCVRSSNIRYTFDRFFDVWGQGTLVTVSSEQKLISEEDLAAATGAPPLGTQPDCNPTPENGEAPASTSPTQSLLVDSQASKTLPIPTSAPVALSSTGKPVLDAGPVLFWVILVLVVVVGSSAFLLCHRRACRKRIRQKLHLCYPVQTSQPKLELVDSRPRRSSTQLRSGASVTEPVAEERGLMSQPLMETCHSVGAAYLESLPLQDASPAGGPSSPRDLPEPRVSTEHTNNKIEKIYIMKADTVIVGTVKAELPEGRGLAGPAEPELEEELEADHTPHYPEQETEPPLGSCSDVMLSVEEEGKEDPLPTAASGK
chain 2: QVQLVQSGAEVKKPGASVKVSCKASRFTFTDYNIHWVRQAPGQGLEWIGYINPNNGDIFYKQKFNGRVTLTADKSTSTAYMELSSLTSEDTAVYYCVRSSNIRYTFDRFFDVWGQGTLVTVSSASTKGPSVFPLAPSSKSTSGGTAALGCLVKDYFPEPVTVSWNSGALTSGVHTFPAVLQSSGLYSLSSVVTVPSSSLGTQTYICNVNHKPSNTKVDKRVEPKSCEVKTDSTDHVKPKETENTKQPSKSCHKPKAIVHTEKVNMMSLTVLGLRMLFAKTVAVNFLLTAKLFFL
chain 3: DVVMTQSPLSLPVTPGEPASISCRASSSVNYIYWYLQKPGQSPQLWIYYTSNLAPGVPDRFSGSGSGTDFTLKISRVEAEDVGVYYCQQFSSSPSTFGQGTKLEIKRTVAAPSVFIFPPSDEQLKSGTASVVCLLNNFYPREAKVQWKVDNALQSGNSQESVTEQDSKDSTYSLSSTLTLSKADYEKHKVYACEVTHQGLSSPVTKSFNRGECPIKTDVITMDPKDNCSKDANDTLLLQLTNTSAYYMYLLLLLKSVVYFAIITCCLLRRTAFCCNGEKS
notes: also called ART-hCT3-hCT3; hCT3 AbTCR+CSR
As to B3, the binding entry was “binds”.

B4: CT3 CAR (CT3-CD28HTM) (other)
VH: EVQLQQSGPELVKPGASVKMSCKASRFTFTDYNIHWVKQSPGKTLEWIGYINPNNGDIFYKQKFNGKATLTINKSSNTAYMELRSLTSEDSAVYYCVRSSNIRYTFDRFFDVWGTGTTVTVSS
VL: ENVLTQSPAIMSASLGEKVTMSCRASSSVNYIYWYQQKSDASPKLWIYYTSNLAPGVPARFSGSGSGNSYSLTISSMEGEDAATYYCQQFSSSPSTFGTGTKLELK
notes: Only the CT3 VH and VL are tied to the antibody
Take B4: the binding result is reported as “binds”.
